In test [1] the target is T1, PSD, endogenous, in A549 cells (human) (UniProt B4DPS3).
T1 sequence: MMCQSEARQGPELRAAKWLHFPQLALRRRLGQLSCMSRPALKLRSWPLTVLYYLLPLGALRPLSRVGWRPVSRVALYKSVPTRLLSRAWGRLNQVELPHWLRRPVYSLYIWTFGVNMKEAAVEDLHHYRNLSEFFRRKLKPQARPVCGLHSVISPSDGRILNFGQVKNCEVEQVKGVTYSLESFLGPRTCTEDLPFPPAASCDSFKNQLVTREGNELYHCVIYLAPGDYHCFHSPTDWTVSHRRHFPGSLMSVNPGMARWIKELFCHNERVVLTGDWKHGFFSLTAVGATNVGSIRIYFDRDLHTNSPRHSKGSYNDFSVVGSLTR
As to the kind of experiment: in situ proximity ligation assay in A549 cells.

The target of test [2] is T1, PSD, endogenous, in A549 cells (human). As to the kind of experiment: in situ proximity ligation assay in A549 cells (figure legend).

These are yes or no findings as the source states them, for the method shown. Binding seen in cells or lysates may run through a third protein. Some binding calls cover weakened binding; strength is not graded here.

B1: SMAC/Diablo, endogenous, in A549 cells and A549 xenograft tumor sections (protein, human, UniProt Q9NR28 56-239, looked up)
chain: AVPIAQKSEPHSLSSEALMRRAVSLVTDSTSTFLSQTTYALIEAITEYTKAVYTLTSLYRQYTSLLGKMNSEEEDEVWQVIIGARAEMTSKHQEYLKLETTWMTAVGLSEMAAEAAYQTGADQASITARNHIQLVKLQVEEVHQLSRKAETKLAEAQIEELRQKTQEEGEERAESEQEAYLRED
Regarding B1, the binding result in test [1] and in test [2] was “binds” throughout.

Values taken from patent US20250051409A1, “MODULATORS OF PHOSPHATIDYLSERlNE DECARBOXYLASE AND USE THEREOF” (THE NATIONAL INSTITUTE FOR BIOTECHNOLOGY IN THE NEGEV LTD., priority 2021, published 2025).
